Data on three molecules can be found in paper PMC9269482.

What all share (experiment): cross-linking; transfected CHO cells, control or labelled with 20 uM BMA for 20 min in the dark; surface proteins biotinylated, lysed (1% Triton X-100), streptavidin agarose, SDS-PAGE (sample buffer with 50 mM DTT, 65°C), Western blot with anti-ASIC1 antibody MTY19; dimer band seen with and without BMA
A general note: A western blot detects proteins with antibodies after separation by electrophoresis.

Assay [1] deals with human ASIC1a wild type (human) (UniProt P78348).
The target in assay [2] is human ASIC1a I428C (human) (UniProt P78348).
In assay [3] the target is human ASIC1a G430C (human) (UniProt P78348).

Results are given in words; binding and its absence hold for the method and conditions named. In cells and extracts the contact can be indirect. Some results given as binding are weak or reduced against the parent protein; the word gives no strength.

B1: human ASIC1a wild type (protein, UniProt P78348-2 1-528)
chain: MELKAEEEEVGGVQPVSIQAFASSSTLHGLAHIFSYERLSLKRALWALCFLGSLAVLLCVCTERVQYYFHYHHVTKLDEVAASQLTFPAVTLCNLNEFRFSQVSKNDLYHAGELLALLNNRYEIPDTQMADEKQLEILQDKANFRSFKPKPFNMREFYDRAGHDIRDMLLSCHFRGEVCSAEDFKVVFTRYGKCYTFNSGRDGRPRLKTMKGGTGNGLEIMLDIQQDEYLPVWGETDETSFEAGIKVQIHSQDEPPFIDQLGFGVAPGFQTFVACQEQRLIYLPPPWGTCKAVTMDSDLDFFDSYSITACRIDCETRYLVENCNCRMVHMPGDAPYCTPEQYKECADPALDFLVEKDQEYCVCEMPCNLTRYGKELSMVKIPSKASAKYLAKKFNKSEQYIGENILVLDIFFEVLNYETIEQKKAYEIAGLLGDIGGQMGLFIGASILTVLELFDYAYEVIKHKLCRRGKCQKEAKRSSADKGVALSLDDVKRHNPCESLRGHPAGMTYAANILPHHPARGTFEDFTC
As to B1, in assay [1], the binding result was “binds”.

B2: human ASIC1a I428C (protein, UniProt P78348-2 1-528)
chain: MELKAEEEEVGGVQPVSIQAFASSSTLHGLAHIFSYERLSLKRALWALCFLGSLAVLLCVCTERVQYYFHYHHVTKLDEVAASQLTFPAVTLCNLNEFRFSQVSKNDLYHAGELLALLNNRYEIPDTQMADEKQLEILQDKANFRSFKPKPFNMREFYDRAGHDIRDMLLSCHFRGEVCSAEDFKVVFTRYGKCYTFNSGRDGRPRLKTMKGGTGNGLEIMLDIQQDEYLPVWGETDETSFEAGIKVQIHSQDEPPFIDQLGFGVAPGFQTFVACQEQRLIYLPPPWGTCKAVTMDSDLDFFDSYSITACRIDCETRYLVENCNCRMVHMPGDAPYCTPEQYKECADPALDFLVEKDQEYCVCEMPCNLTRYGKELSMVKIPSKASAKYLAKKFNKSEQYIGENILVLDIFFEVLNYETIEQKKAYECAGLLGDIGGQMGLFIGASILTVLELFDYAYEVIKHKLCRRGKCQKEAKRSSADKGVALSLDDVKRHNPCESLRGHPAGMTYAANILPHHPARGTFEDFTC
On to B2, for which, in assay [2], the binding result is on record as “binds”.

B3: human ASIC1a G430C (protein, UniProt P78348-2 1-528)
chain: MELKAEEEEVGGVQPVSIQAFASSSTLHGLAHIFSYERLSLKRALWALCFLGSLAVLLCVCTERVQYYFHYHHVTKLDEVAASQLTFPAVTLCNLNEFRFSQVSKNDLYHAGELLALLNNRYEIPDTQMADEKQLEILQDKANFRSFKPKPFNMREFYDRAGHDIRDMLLSCHFRGEVCSAEDFKVVFTRYGKCYTFNSGRDGRPRLKTMKGGTGNGLEIMLDIQQDEYLPVWGETDETSFEAGIKVQIHSQDEPPFIDQLGFGVAPGFQTFVACQEQRLIYLPPPWGTCKAVTMDSDLDFFDSYSITACRIDCETRYLVENCNCRMVHMPGDAPYCTPEQYKECADPALDFLVEKDQEYCVCEMPCNLTRYGKELSMVKIPSKASAKYLAKKFNKSEQYIGENILVLDIFFEVLNYETIEQKKAYEIACLLGDIGGQMGLFIGASILTVLELFDYAYEVIKHKLCRRGKCQKEAKRSSADKGVALSLDDVKRHNPCESLRGHPAGMTYAANILPHHPARGTFEDFTC
Regarding B3, in assay [3], the binding entry was “binds”.
